# Source: PubChem BioAssay AID624291 (National Center for Advancing Translational Sciences (NCATS), 2012)
# The campaign covered roughly 350,000 compounds. About 220 (0.063%) were called active. Inconclusive results, whose numbers are uncertain, are shown with a selection of clear calls. Calls follow the shape of the dose curve; as a rule, active = well fitted activation curve with a large enough effect; inconclusive = small, poorly fitted or top-dose-only effect; inactive = no such curve, though single readings can be large or run the other way. A potency beside an inconclusive call is a rough fit, not a confirmed value.
# Test: qHTS for Activators of Integrin-Mediated Alleviation for Muscular Dystrophy; also: nearly all actives have a fitted effect of over 60% in size;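 as to activation: 100% = response of the positive control SU9516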
# Details: alpha7betagal myoblasts, beta-gal FDG fluorescence, 48 h; activation: at 38.3 µM (top of the series)
# In short: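 alpha7betagal+/- myoblasts (passage 13, 250/well) treated 48 h at 37C with compounds at 1:260 dilution of DMSO stock. Lysed, then beta-galactosidase activity read as FDG fluorescence (ex 480/em 540) after 30 min, with pre-read for autofluorescence.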
# Potency is read from the fitted curve at half-maximal effect.
SMILES,Potency,activation
C/C(=N\Nc1cc(Cl)nc(C)n1)c1ccc(Cl)c(Cl)c1,"inconclusive: 0.447 µM [activator, full curve, poor fit]",
CCN(CC)C(=O)c1ccc(-c2cccs2)s1,"inconclusive: 5.01 µM [activator, single point]",
CC(=O)C1=C(C)Nc2ncnn2C1c1ccc(C)cc1 (centres undefined),"inconclusive: 6.31 µM [activator, partial curve, poor fit]",
Cc1[nH][nH]c(=O)c1C(c1ccccc1[N+](=O)[O-])C(C#N)C#N (centres undefined),,inactive: -29.7%
COc1ccc(Nc2nnc(Cc3ccncc3)c3ccccc23)c(OC)c1,"inconclusive: 3.98 µM [activator, single point]",
O=P(COCCOCCOCCOCP(=O)(c1ccccc1)c1ccccc1)(c1ccccc1)c1ccccc1,"inconclusive: 28.2 µM [activator, single point]",
C[C@H]1CN=C2N(CCNC(=O)CCC3CCCCC3)[C@H](Cc3ccc(O)cc3)CN21,,inactive: 11.3%
NC(=O)c1cc(S(=O)(=O)N2CCN(c3ccc([N+](=O)[O-])cc3)CC2)cs1,"inconclusive: 1.41 µM [activator, partial curve, poor fit]",
CCCC(=O)Nc1ccc(C(=O)COC(=O)C2CC2)cc1,"inconclusive: 11.2 µM [activator, partial curve, poor fit]",
Cn1c(=O)c2c(nc(OC/C=C/c3ccccc3)n2C)n(C)c1=O,,inactive: -2.65%
O=c1[nH]c2nc(Br)[nH]c(=O)c2[nH]1,"inconclusive: 2.24 µM [activator, partial curve, poor fit]",
O=C(O)c1cc(N/N=C/c2ccc3c(c2)OCCO3)ccc1Cl,"inconclusive: 11.2 µM [activator, partial curve, poor fit]",
Cc1ccc(NCC(=O)N/N=C\c2ccc[nH]2)cc1,,inactive: -2.7%
COC(=O)CSc1nc(N)c(C#N)c(-c2ccc(O)cc2)c1C#N,"inconclusive: 5.01 µM [activator, single point]",
S=C1NC2(CCCCC2)Cc2ccccc21,"inconclusive: 1.12 µM [activator, full curve, poor fit]",
CC(=O)c1cccc(NC(=S)N2CCC(Cc3ccccc3)CC2)c1,,inactive: 11.7%
Cc1cc(C)c(C(=O)Nc2cccc(F)c2)c(Cl)n1,"inconclusive: 28.2 µM [activator, single point]",
COc1cccc(-n2nnc3c(=O)n(C/C=C/c4ccccc4)cnc32)c1,,inactive: -0.992%
O=C(COC(=O)CCC(=O)c1ccc(F)cc1)Nc1ccc(Cl)cn1,"inconclusive: 5.62 µM [activator, single point]",

# Reprinted at random: two records from the list.
SMILES,Potency,activation
Cc1cc(C)c(C(=O)Nc2cccc(F)c2)c(Cl)n1,"inconclusive: 28.2 µM [activator, single point]",
Cn1c(=O)c2c(nc(OC/C=C/c3ccccc3)n2C)n(C)c1=O,,inactive: -2.65%
